The assay deals with T1, Flag-tagged EVER2 (human) (UniProt Q8IU68).
T1 sequence: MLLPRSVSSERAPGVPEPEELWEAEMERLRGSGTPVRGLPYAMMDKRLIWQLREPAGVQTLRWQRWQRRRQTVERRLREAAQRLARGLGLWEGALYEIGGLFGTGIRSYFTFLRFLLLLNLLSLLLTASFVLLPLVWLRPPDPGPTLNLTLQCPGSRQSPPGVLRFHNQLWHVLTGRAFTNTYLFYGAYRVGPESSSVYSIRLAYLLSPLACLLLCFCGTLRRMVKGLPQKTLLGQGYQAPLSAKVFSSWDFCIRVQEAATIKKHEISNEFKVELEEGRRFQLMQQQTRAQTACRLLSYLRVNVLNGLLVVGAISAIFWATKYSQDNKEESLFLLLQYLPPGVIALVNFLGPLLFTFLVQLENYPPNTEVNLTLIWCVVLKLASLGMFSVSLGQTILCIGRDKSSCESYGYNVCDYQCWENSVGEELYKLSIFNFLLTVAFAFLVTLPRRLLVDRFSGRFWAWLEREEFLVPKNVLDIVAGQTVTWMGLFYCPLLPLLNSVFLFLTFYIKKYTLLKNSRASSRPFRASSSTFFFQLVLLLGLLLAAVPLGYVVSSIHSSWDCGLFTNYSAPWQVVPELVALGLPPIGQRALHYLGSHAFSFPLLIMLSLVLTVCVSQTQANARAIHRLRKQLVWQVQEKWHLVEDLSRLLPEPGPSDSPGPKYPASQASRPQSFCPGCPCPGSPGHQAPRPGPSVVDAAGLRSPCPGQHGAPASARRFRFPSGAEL
Description: co-IP; HEK-293T cells co-transfected with Flag-EVER2 and Gluc2-tagged proteins; crude lysates (50 mM Tris pH 7.5, 150 mM NaCl, 1 mM EDTA, 0.5% NP40, 0.25% DOC) immunoprecipitated with anti-Flag antibody overnight at 4°C, protein G/protein A-agarose, immunoblot.

Protein sequences, listed by entry. Tags and fused reporters are not part of them.
UniProt Q13546: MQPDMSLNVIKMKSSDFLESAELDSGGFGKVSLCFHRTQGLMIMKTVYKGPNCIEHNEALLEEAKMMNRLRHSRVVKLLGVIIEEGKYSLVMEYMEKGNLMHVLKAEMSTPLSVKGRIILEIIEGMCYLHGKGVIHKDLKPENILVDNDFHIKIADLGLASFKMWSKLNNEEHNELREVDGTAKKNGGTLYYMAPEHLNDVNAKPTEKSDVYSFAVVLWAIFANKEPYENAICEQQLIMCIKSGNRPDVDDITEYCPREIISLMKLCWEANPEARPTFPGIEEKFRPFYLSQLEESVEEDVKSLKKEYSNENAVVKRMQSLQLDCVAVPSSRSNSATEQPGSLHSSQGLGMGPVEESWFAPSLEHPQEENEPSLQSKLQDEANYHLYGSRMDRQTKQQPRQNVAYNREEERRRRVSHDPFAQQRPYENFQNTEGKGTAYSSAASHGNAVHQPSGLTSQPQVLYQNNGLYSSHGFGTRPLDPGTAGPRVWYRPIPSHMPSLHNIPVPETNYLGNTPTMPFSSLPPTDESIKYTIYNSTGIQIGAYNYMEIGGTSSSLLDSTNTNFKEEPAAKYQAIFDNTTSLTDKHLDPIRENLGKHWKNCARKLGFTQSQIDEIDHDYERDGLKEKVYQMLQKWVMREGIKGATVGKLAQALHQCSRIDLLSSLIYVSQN

No constants are given. Whether binding was seen depends on the method and setting. In cells and extracts the contact can be indirect. Some entries that bind do so weakly or less than the wild type. Where a sequence is shown, tags or fusion partners need not be part of it.

Take “Gluc2-tagged receptor-interacting serine/threonine-protein kinase 1 (RIPK1) (from UniProt Q13546 1-671)”: the binding result was “no binding”.

B1: Gluc2-tagged TRAF1 (protein, UniProt Q13077 1-416)
chain: MASSSGSSPRPAPDENEFPFGCPPTVCQDPKEPRALCCAGCLSENPRNGEDQICPKCRGEDLQSISPGSRLRTQEKAHPEVAEAGIGCPFAGVGCSFKGSPQSVQEHEVTSQTSHLNLLLGFMKQWKARLGCGLESGPMALEQNLSDLQLQAAVEVAGDLEVDCYRAPCSESQEELALQHFMKEKLLAELEGKLRVFENIVAVLNKEVEASHLALATSIHQSQLDRERILSLEQRVVELQQTLAQKDQALGKLEQSLRLMEEASFDGTFLWKITNVTRRCHESACGRTVSLFSPAFYTAKYGYKLCLRLYLNGDGTGKRTHLSLFIVIMRGEYDALLPWPFRNKVTFMLLDQNNREHAIDAFRPDLSSASFQRPQSETNVASGCPLFFPLSKLQSPKHAYVKDDTMFLKCIVETST
Regarding B1, the binding result is “binds”.

Source of the values: publication PMC3929693.
